For one molecule, binding results are on record in publication PMC6602337.

The chains behind the UniProt entries cited, without tags or fusion partners.
UniProt Q6UFS5: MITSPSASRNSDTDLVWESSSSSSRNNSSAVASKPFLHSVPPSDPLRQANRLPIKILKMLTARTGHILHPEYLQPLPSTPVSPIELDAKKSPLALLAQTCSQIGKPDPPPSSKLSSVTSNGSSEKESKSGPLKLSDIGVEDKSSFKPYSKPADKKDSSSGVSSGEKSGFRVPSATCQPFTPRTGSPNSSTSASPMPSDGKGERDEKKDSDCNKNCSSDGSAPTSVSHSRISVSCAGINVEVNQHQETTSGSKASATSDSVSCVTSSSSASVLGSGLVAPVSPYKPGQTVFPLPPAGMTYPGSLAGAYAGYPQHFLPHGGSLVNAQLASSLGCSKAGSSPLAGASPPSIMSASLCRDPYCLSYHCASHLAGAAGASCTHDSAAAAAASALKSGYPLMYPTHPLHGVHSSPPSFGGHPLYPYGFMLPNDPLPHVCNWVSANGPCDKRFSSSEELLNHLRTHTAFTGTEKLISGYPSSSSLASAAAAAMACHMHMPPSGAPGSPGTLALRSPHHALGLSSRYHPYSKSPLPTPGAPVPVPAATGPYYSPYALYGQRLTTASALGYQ

In this test the target is Nlz2-FLAG (zebrafish zinc-finger transcription factor Nlz2 with C-terminal FLAG tag) (zebrafish) (UniProt Q6UFS5). Briefly: co-IP; HEK 293 cells co-transfected with Nlz2-FLAG, Siah1-MYC and Ubiquitin-HA; lysed in TCL buffer (50 mM Tris pH 7.5, 150 mM NaCl, 1% Triton, 1% SDS, 10 µM MG-132), boiled at 95°C for 10 min, diluted with TCL buffer without SDS; precipitated with mouse anti-FLAG and Protein A sepharose overnight at 4°C; blot with anti-MYC, anti-FLAG, anti-HA.

No constants are given. Whether binding was seen depends on the method and setting. Binding seen in cells or lysates may run through a third protein. Some entries that bind do so weakly or less than the wild type. Where a sequence is shown, tags or fusion partners need not be part of it.

B1: Siah1-myc (zebrafish E3 ubiquitin ligase Siah1 with C-terminal MYC tag) (enzyme, UniProt Q7ZVG6 1-282)
chain: MSRQTATALPTGTSKCPPSQRVPTLSGTTASNSDLASLFECPVCFDYVLPPILQCQSGHLVCSNCRPKLTCCPTCRGPLGSIRNLAMEKVANSVLFPCKYASSGCEVTLPHTDKAEHEELCEFRPYSCPCPGASCKWQGSLDAVMPHLLHQHKSITTLQGEDIVFLATDINLPGAVDWVMMQSCFGFHFMLVLEKQEKYDGHQQFFAIVQLIGTRKQAENFAYRLELNGHRRRLTWEATPRSIHEGIATAIMNSDCLVFDTSIAQLFAENGNLGINVTISMC
For the molecule B1, the binding entry is reported as “binds”.
